We go through nine compounds from US20260285855A1, “HETEROARYL DERIVATIVES AS DDRS INHIBITORS” (CHIESI FARMACEUTICI S.P.A., priority 2023, published 2026).

Sequences of proteins named here, by UniProt entry; tags and fusion partners are left off. Residues count along the entry.
UniProt Q16832, 22-855 limits assumed: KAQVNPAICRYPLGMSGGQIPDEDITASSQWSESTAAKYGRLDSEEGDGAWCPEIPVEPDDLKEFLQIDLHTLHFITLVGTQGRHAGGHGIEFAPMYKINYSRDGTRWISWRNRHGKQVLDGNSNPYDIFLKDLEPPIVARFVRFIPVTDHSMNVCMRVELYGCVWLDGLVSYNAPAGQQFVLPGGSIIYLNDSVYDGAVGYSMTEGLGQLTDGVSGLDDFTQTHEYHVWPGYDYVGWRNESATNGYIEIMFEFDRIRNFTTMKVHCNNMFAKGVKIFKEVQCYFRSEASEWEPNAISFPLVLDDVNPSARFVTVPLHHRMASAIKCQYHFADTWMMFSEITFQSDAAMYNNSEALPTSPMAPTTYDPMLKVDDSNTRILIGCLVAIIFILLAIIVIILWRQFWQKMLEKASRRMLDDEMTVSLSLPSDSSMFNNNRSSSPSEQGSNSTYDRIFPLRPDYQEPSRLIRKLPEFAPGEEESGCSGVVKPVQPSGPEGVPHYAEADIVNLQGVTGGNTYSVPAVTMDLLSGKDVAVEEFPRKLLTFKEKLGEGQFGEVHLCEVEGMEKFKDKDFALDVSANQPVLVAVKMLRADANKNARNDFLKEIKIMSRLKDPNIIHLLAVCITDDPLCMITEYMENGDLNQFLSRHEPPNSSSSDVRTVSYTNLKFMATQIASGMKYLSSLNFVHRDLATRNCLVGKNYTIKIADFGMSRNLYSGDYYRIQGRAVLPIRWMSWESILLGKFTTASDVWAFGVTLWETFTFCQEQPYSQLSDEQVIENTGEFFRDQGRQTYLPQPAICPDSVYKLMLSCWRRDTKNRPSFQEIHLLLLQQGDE
UniProt Q08345, 19-913 limits assumed: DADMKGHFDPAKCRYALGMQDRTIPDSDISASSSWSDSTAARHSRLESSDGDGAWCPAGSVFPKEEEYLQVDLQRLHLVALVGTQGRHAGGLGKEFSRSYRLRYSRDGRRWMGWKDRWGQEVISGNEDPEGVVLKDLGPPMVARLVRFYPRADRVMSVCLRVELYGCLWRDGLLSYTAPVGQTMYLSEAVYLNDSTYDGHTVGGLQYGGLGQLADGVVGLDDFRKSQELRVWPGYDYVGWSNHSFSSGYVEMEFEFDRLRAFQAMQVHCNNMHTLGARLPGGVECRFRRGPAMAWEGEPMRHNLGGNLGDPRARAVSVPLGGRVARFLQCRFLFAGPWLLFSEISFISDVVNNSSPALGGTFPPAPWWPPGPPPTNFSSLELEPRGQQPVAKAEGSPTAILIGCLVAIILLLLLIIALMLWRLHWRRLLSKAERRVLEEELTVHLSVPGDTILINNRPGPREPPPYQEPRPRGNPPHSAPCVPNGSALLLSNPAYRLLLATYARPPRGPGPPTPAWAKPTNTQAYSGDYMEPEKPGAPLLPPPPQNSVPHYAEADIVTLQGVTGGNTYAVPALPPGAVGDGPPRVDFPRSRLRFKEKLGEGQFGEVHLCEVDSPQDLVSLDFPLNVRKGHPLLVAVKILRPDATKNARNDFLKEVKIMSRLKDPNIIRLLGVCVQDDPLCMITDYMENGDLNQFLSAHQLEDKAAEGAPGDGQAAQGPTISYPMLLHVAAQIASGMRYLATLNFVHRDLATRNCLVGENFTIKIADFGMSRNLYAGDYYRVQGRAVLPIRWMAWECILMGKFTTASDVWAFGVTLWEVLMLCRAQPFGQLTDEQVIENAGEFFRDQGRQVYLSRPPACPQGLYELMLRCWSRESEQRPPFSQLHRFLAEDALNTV

The Ki is a measure of affinity in units of concentration, obtained from inhibition or displacement.

Structures are written as SMILES. The structures given here were assigned with low confidence; some may be wrong.

One test deals with DDR2 (Homo sapiens, UniProt Q16832). The test can be described thus: LanthaScreen Europium Kinase Binding assay, DDR2. The settings on record: read-out: Ki DDR2; 5 nM DDR2, 10 nM Kinase Tracer 178, 1 h at rt; Ki from IC50 by Cheng-Prusoff. (TR-FRET usually uses a lanthanide donor and a delayed reading to cut background.)
For the next test, the target named is DDR1 (Homo sapiens, UniProt Q08345). The test can be described thus: LanthaScreen Europium Kinase Binding assay, DDR1. Conditions: read-out: Ki DDR1; 5 nM DDR1, 20 nM Kinase Tracer 178, 1 h at rt; Ki from IC50 by Cheng-Prusoff.

For `O=C(Nc1cncc(C(F)(F)F)c1)NC1CC2(C1)CN(C(=O)c1ncnc3ccsc13)C2`, the inhibitory constant (Ki) on DDR2 and on DDR1 was less than 5 nM throughout.
With `CN(C(=O)Nc1cncc(C(F)(F)F)c1)C1CC2(C1)CN(C(=O)c1cnn3ccc(-c4cnn(C)c4)cc13)C2`, the inhibitory constant (Ki) was 5 to 25 nM on DDR2 and less than 5 nM on DDR1.
For the compound `CN(C(=O)Nc1cc(C(C)(C)C(F)(F)F)no1)C1CC2(C1)CN(C(=O)c1cnn3ccn(C)c13)C2`, the figures for the Ki on DDR2 and at DDR1 were 5 to 25 nM and less than 5 nM, respectively.
Taken in the same sequence, the figures for `CN(C(=O)Nc1cc(OC(F)(F)F)ccn1)C1CC2(C1)CN(C(=O)c1cnn3ccn(CCO)c13)C2` were 25 to 100 nM and less than 5 nM.
Consider `Cn1nc(C(C)(C)C)cc1NC(=O)NC1CC2(C1)CN(C(=O)c1ncnc3ccsc13)C2`, for which the Ki at DDR2 is 5 to 25 nM; on DDR1 it was less than 5 nM.
On the same counts, the results for `CN(C(=O)Nc1cccc(C(F)(F)F)c1)C1CC2(C1)CN(C(=O)c1cnc3ccccn13)C2` are 5 to 25 nM and less than 5 nM.
Taken in the same sequence, the figures for `O=C(Nc1cccc(C(F)(F)F)c1)NC1CC2(C1)CN(C(=O)c1cnn3cc[nH]c13)C2` were less than 5 nM and less than 5 nM.
Taken in the same sequence, the figures for `O=C(Nc1cccc(C(F)(F)F)c1)NC1CC2(C1)CN(C(=O)c1ncnc3[nH]ccc13)C2` were less than 5 nM and less than 5 nM.
As for `O=C(CC1CC2(C1)CN(C(=O)c1cnn3ccncc13)C2)Nc1cccc(C(F)(F)F)c1`, the inhibition constant Ki was 5 to 25 nM at DDR2 and less than 5 nM at DDR1.
